From patent publication US20220241249A1, “PHARMACEUTICAL COMPOSITION AND KIT CONTAINING NOVEL PENAM DERIVATIVE OR SALT THEREOF AND ONE OR MORE COMPOUNDS SELECTED FROM beta-LACTAMASE INHIBITORY COMPOUND AND ANTIBACTERIAL COMPOUND OR SALTS THEREOF” (priority 2019, published 2022)
At least one compound was matched to its structure with a doubt left.

System: Pseudomonas aeruginosa ATCC27853 strain (Pseudomonas aeruginosa A)
Test: Combinational effect of test compound and antibacterial compound, checkerboard FIC index
Assay type: cell-based
Details: in combination with MPC
Procedure: By using a broth microdilution method, the combinational effect of antibacterial activity of a test compound and an antibacterial compound was evaluated.
As bacterial strains, an Escherichia coli ATCC25922 strain (hereinafter, called Escherichia coli A), a Klebsiella pneumoniae ATCC13883 strain (hereinafter, called Klebsiella pneumoniae A), and a Pseudomonas aeruginosa ATCC27853 strain (hereinafter, called Pseudomonas aeruginosa A) were used.
The minimum inhibitory concentration (hereinafter, called MIC) was measured according to the Clinical and Laboratory Standards Institute (CLSI) standard method by using the following broth microdilution method.
The bacterial cells that had been cultured overnight on a Mueller Hinton agar medium were scraped off, suspended at a density equivalent to 0.5 McFarland standard. The obtained suspension was diluted at 10 fold, thereby obtaining an inoculum. Cation-adjusted Mueller Hinton media containing only a test compound, containing only an antibacterial compound, or containing a test compound and an antibacterial compound were inoculated with 0.005 mL of the inoculum, and the cells were cultured at 35° C. for 18 to 20 hours. The minimum drug concentration at which the growth of bacteria was not visually observed was defined as MIC (μg/mL).
The FIC Index is the minimum value calculated by the following formula. […]

Compound: CC(C)(O/N=C(\C(=O)N[C@@H]1C(=O)N2C[C@@](C(=O)O)(N3CCN(NC(=O)C(=O)c4ccc(O)c(O)c4Cl)C3=O)S[C@H]12)c1csc(N)n1)C(=O)O [Compound A]
- FIC index: 0.5>, ≤1
